Experimental data taken from PubChem BioAssay AID1347426 (Functional Genomics Laboratory (NCATS/FGL), 2020).
Hit rate of the full screen: of about 31,000 sequences, about 1,400 (4.5%) were called active.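 Rule for the calls: active = median seed-adjusted z-score above 1 or below -1; inactive = the rest.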 This is one part of the list.

Assay: Novel Modifiers of Survival Motor Neuron (SMN) Protein: Gene Identification via Genome-wide siRNA Screen;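 note: luminescence tracks full-length SMN protein made from the SMN2 reporter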
Conditions: HEK293T SMN2-luciferase reporter, siRNA knockdown, 72 h; actives lie on both sides
How it was run: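 HEK293T cells stably carrying an SMN2 promoter/splicing cassette–luciferase reporter were reverse-transfected with 1 pmol siRNA per well (druggable-genome library, 3 siRNAs per gene) and grown 72 h at 37 °C. Luminescence, normalized to negative-control siRNA and log10-transformed, was scored as MAD.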

Sequence | median seed-adjusted z-score
CACCCUAGCUGGAACUCUATT against CTRL | inactive: 0.0758
GCGUGGAUAUUUACCUGGATT against IFT140 | inactive: -0.0152
GGAGACAAGUGUAAUCUUATT against OSBP | inactive: 0.256
CCUGGACCCUGAACUCACATT against LILRA4 | inactive: 0.109
GAAUUACGCAGAAAAUGAUTT against FARS2 | inactive: 0.587
GGAUGUACAUGAUGCCCUUTT against MTRR | inactive: -0.381
GAGCAUCAAGUCAUCCAUATT against PPFIA3 | inactive: -0.0669
CCUGGGUCGCAACAUCUUUTT against SYTL1 | inactive: 0.0856
GCGGAGGAGUUCACCUAUATT against RBP3 | inactive: 0
CCAGAGUCACUGCUCAUUATT against BTBD11 | inactive: -0.00434
GGUUAAAGCUCAAAAACGATT against ZNF75A | inactive: 0.303
GGACUUCAGUGAGCUAGAATT against PYGL | inactive: 0.166
CUCAAGACCUUUAUAGCUATT against CLCN2 | inactive: -0.0786
GGAUGUCUAUGGAUACCAATT against GANC | inactive: 0.799
GCUUUCUAUCGAUCCUCAATT against ZNF681 | inactive: 0.271
GGACUACUAUGCCACUGCUTT against SSTR4 | inactive: -0.00217
CGCUCCUUGUCAAAAGAAATT against KCNS3 | inactive: 0.103
CAAAUGAACUGGACAUUAATT against ZNF786 | inactive: -0.518
GGACAUUGAUUAUAUUGGATT against GALC | inactive: 0
ACUUGUACCUGUCCCAUAATT against CHAD | inactive: 0
GCCUAUAUCUCACGCUCUATT against ZFP62 | inactive: -0.255
GGAUUUGCAGGAGUAUAUUTT against SLC35A1 | inactive: 0.00794

Sequence | median seed-adjusted z-score
CAGCAUUGCUCUUAAGGUUTT against USP6 | inactive: -0.285
GGAUCUAUCUCAUCAAACATT against NDUFC1 | inactive: 0
CCUGAAACCUCAGAACUUATT against PFTK2 | active: -1.16
GGAGGAAGAUGGACCGGAUTT against NPPB | inactive: -0.973
GGCAUGACCUCAUCACAGUTT against RNASE7 | active: 1.07
GACAAGUGGUUAACUGGUUTT against AADAT | inactive: 0.0891
AAGAGAGAUUUGAUAGUUATT against TRIM21 | inactive: 0.524
UGUCAGAUCUGUUUCAAUUTT against RNF152 | inactive: -0.745
CGAGCAAUAAGUCCAUGGATT against ACOT7 | inactive: 0.665
CACCGAGUCGGAAUACUAUTT against TGFB3 | inactive: -0.354
AGCACAAUAUAAUAGUGGATT against GPR148 | inactive: 0
ACAAAGCUGCUGUGCUAUATT against BET1 | inactive: 0.394
UGAGAUUUCCAAUUCCCAATT against ZNF641 | inactive: 0.233
GUGUCUACAUCUAACAAGATT against ZKSCAN2 | inactive: -0.0343
GGAUGAAGACUAUAGGGUATT against PHGDH | inactive: 0.108
GGAGCUCGAUCACCACUUATT against MAML3 | inactive: -0.412
GGAUGCUGGAUAAUCGGAATT against UBP1 | inactive: 0.847
GCCUGAACCUCAUCCUUAUTT against ENPP1 | inactive: -0.273
GGACGUAAGGGACUCAAAATT against HSD17B1 | inactive: -0.569
CCAUUGUCUAUGCUACGGATT against KCTD13 | inactive: -0.273
CGUCUACCGAGAUCUGAAATT against GRK5 | inactive: -0.377
GCACUUUCCCGCCUCUUUATT against PRSS16 | inactive: -0.0226

Sequence | median seed-adjusted z-score
GAGAGCAUCGUUAAAGAUATT against TRAF3 | inactive: 0.731
CCUCCGUUAUGAUCGGCUATT against B4GALNT1 | inactive: 0.0265
CACGGAUGAUGAACGAGAATT against GRHL2 | inactive: 0.0233
GAUACGUUCUGCAAUGUUATT against EPYC | inactive: 0.00264
CGAGUGGACCUACGAGGAATT against ARID3C | active: -1.32
GCCUAGGUAUGGGAAAAGATT against PPY | inactive: -0.0804
AGCUUCUACGAGCUCAAAATT against TFE3 | inactive: -0.0442
ACCACUCAGAUAUCCCAAATT against ST6GAL1 | inactive: -0.14
GGCUAUCAUCUACACCCGATT against UGCG | inactive: 0.492
ACCCAACUCUUACUCUUAATT against RNF7 | active: -1.18
CCAGCAUAGCAUAAUCCAATT against ZNF233 | inactive: 0.59
CCAUUUCCAGAGGCCCAGATT against SLC22A12 | inactive: -0.148
AGACAUCAGAAUUUACUGATT against CHGA | inactive: -0.0235
GGCUGUUCCUGAGACUGCATT against DMAP1 | inactive: 0.342
GGAGCUUCUUAACAGCGAUTT against CIITA | inactive: -0.109
GGUCCAGCAUAGUUUAUCATT against RRAGB | inactive: 0
CGGCUGAGCAGAUCUCAGATT against SCO2 | inactive: 0.848
GCUGUGGAUUGUCCAACAATT against NPY5R | inactive: 0.213
AGAAGAAGAUCGUCCAGGATT against FGD2 | inactive: 0.0293
CACACCAGAUUGUAGAAAATT against SLC24A5 | inactive: -0.166
GAGUUUGCACAGUCAGUAATT against TBC1D23 | inactive: 0.0932
ACGACUGCCUGGUCUUAAATT against ADAP2 | active: -1.1

As a short view, some entries already given:
Sequence | median seed-adjusted z-score
GGAGCUUCUUAACAGCGAUTT against CIITA | inactive: -0.109
GGUCCAGCAUAGUUUAUCATT against RRAGB | inactive: 0

(listing goes on)

Sequence | median seed-adjusted z-score
CGUGAACACUAUGAGCGGATT against MAP3K13 | inactive: -0.121
GCUUCAAUCUUUCUCGUAUTT against C10orf2 | inactive: 0.31
GGAGAUACCUCAGUGCACATT against CPT2 | inactive: 0.542
CUAGUUUAAUAAAGAUUCATT against APOE | inactive: 0.0321
CCAUCGUCCAUGAGAUCGATT against KCNJ14 | inactive: -0.526
CAAUCUUGGAUGCACUAAATT against MALT1 | inactive: 0.442
GCUUCGCCCUUGCUUGUAATT against RFC2 | inactive: 0.00126
GCAGAGCAAUGGGAGAGAATT against EPHB4 | inactive: -0.143
CCCAAUUUAUUGAAAGUGATT against SLC2A4RG | inactive: -0.0232
GGCUGAAAUUGUAACCCUATT against TPD52L3 | inactive: 0.552
CUACUACGAUGCCUACCAATT against CLDN2 | inactive: 0.865
CCAUGAAGCUUUGAGUGAATT against EEF1A1 | inactive: -0.755
CAGCAGAUUGUGAAUCUGATT against MLLT1 | inactive: -0.086
UGUGAACCGCGCCUACUUUTT against PPM1F | inactive: -0.231
CAUCUAUGGUUUCUACGAUTT against PPP1CA | inactive: 0.115
GCAUAGUCCAGUUUUAUUATT against MTA2 | inactive: 0.947
CCUUACCACUACUUUGAGATT against ST6GALNAC4 | inactive: -0.39
GGUAGUCUAUCACUUCGAATT against TRIM37 | inactive: -0.108
CCUUCGCUAUGAUGGAGCATT against HPN | inactive: -0.0237
CAGUUUCUCAUGAUCGAGATT against RASSF9 | inactive: 0.314
AAAAUGGAAUUCUAAGUUATT against DMRTA2 | inactive: 0.252
GGAAAACUGCGGCUGCAAATT against AP1S1 | active: -1.04

Single values from the list:
Entry for CCUGAAACCUCAGAACUUATT against PFTK2 under median seed-adjusted z-score: active: -1.16
Entry for GGAUGUCUAUGGAUACCAATT against GANC under median seed-adjusted z-score: inactive: 0.799

The listing continues:

Sequence | median seed-adjusted z-score
GAUCGUUCAUAAUGGAGAATT against ZFP14 | inactive: 0.263
GAAUUGUAGUGGAUGAAAATT against CHFR | inactive: -0.673
GCCUCCUACUCAGCGUAUATT against PCDHGA8 | inactive: 0.00691
GGCACCAAUUGGAUAUUCUTT against SLC5A7 | inactive: 0.624
GGCUCAAGGAGAUCGUUUATT against ARNT | inactive: -0.244
GCUUCAUGAUUGUCUACAATT against ELOVL1 | inactive: 0.564
CCAAGAGUGAUGCAGAGGATT against CABP4 | inactive: 0.146
CAAUCUCCGGAGGCACGAATT against MAZ | inactive: 0.316
GAAUAACUGCUGCUUGUAATT against TTRAP | inactive: -0.33
GGAAGAGACUUUGUCCACATT against BIRC7 | active: -1.44
CUACUGGACUGAUCAAGCUTT against CTCFL | inactive: -0.362
GAUACACUUUGUCACCAAATT against FLT3LG | inactive: -0.166
GGGUGGAUCUAUGACAUCATT against SLC16A14 | inactive: 0.464
GGAUGUUAUUUACGCUCGATT against PTPN13 | inactive: 0.0682
GGUUUACUCUUAUCUGACUTT against RARS2 | inactive: -0.0247
CGAGAAAUCCCACAAGCGATT against NOVA2 | inactive: 0
GGAUGUGGACAACAAAGUATT against SARS | inactive: 0.377
AUUCAUCUCAUAAACAAAATT against BATF2 | inactive: 0.714
UAAUCUACGUGGUCUGAGATT against ZCCHC3 | inactive: -0.849
